# Results reported in the supplement of paper PMC3334620.
# In all, about 33,000 sequences were measured (“E-score (-0.5 to 0.5)”: median about -0.0059, highest 2% from about 0.26 on). The list shows a part of the results.
# Target: T1, Cin5 (UniProt P40917)
# T1 sequence: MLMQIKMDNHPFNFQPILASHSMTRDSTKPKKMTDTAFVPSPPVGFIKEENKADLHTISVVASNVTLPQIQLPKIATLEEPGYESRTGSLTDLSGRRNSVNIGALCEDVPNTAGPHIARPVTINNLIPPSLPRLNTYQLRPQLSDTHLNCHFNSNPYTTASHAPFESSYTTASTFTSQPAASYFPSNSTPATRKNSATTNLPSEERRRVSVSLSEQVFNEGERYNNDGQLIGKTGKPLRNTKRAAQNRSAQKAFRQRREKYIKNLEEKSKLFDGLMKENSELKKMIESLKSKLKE
# Test: PBM E-score (8-mer binding enrichment) (E-score (-0.5 to 0.5)); higher = stronger / more preferred TF binding
# Conditions: protein concentration: 100 nM; construct: GST-full length
# Summary of the method: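 Detection of bound protein used fluorescent anti-GST, with scans normalised by masliner. The proteins were GST-tagged yeast transcription factors applied at about 100-200 nM to universal all-10-mer Agilent arrays made double-stranded by primer extension. Each ungapped eight-base word, pooled with its reverse complement, was scored with an E-score from the Universal PBM Analysis Suite.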
row,Sequence,PBM E-score
1,ACGAGCAC,0.0254
2,CAAGTCGC,-0.155
3,CCATCTCA,-0.0126
4,AGAAATTG,0.158
5,GTATCATA,0.274
6,CGGTGAAG,-0.311
7,ACGTCAGA,0.00243
8,CTGGACTC,-0.129
9,AAGCCTTC,-0.135
10,GCCAAGCA,-0.119
11,ATAGCCCC,-0.24
12,CCATCAAA,0.158
13,CAGATCAA,-0.088
14,CTAATACA,0.161
15,GCACACGC,-0.159
16,AAATAACA,0.171
17,CCAGAAGC,-0.122
18,TAATCTAA,0.0877
19,GATACGGC,-0.204
20,AGTGGGAT,0.166
21,CCTTCCCA,0.00213
22,AAGACCCA,-0.196
23,TCGTGGAA,0.263
24,AAGAAGCC,0.0802
25,CGAGATTA,0.244

# Reprinted at random: 2 entries already listed, in no set order.
row,Sequence,PBM E-score
8,CTGGACTC,-0.129
24,AAGAAGCC,0.0802

# Continuation.

row,Sequence,PBM E-score
1,ACATTACT,0.13
2,GAGTAATA,0.26
3,CCATTAAC,0.131
4,AGACTCTC,-0.155
5,CTGTGCGC,-0.103
6,TACCTAAA,0.185
7,GGGCGGAC,-0.224
8,GTTGAAAC,0.0445
9,TGGCACAA,-0.096
10,ATAACTGA,0.175
11,CTTCACAC,0.0747
12,AGGTTCAA,0.0218
13,ATAGTAGG,0.114
14,AGTTGAAA,-0.0098
15,CGTTTTGA,0.0112
16,CCAGTGGA,-0.127
17,CCGACAAG,0.0518
18,CCCTCTCC,-0.287
19,ATATGTGA,0.227
20,CATCTGCG,0.0286
21,AGATGCGA,0.0696
22,CTCCGGGA,-0.0715
23,CCAAGAGA,-0.0651
24,CACGTTGA,-0.095
25,GGTTCGGA,-0.119

row,Sequence,PBM E-score
1,ATTTAACC,0.108
2,GTTTAGCA,-0.0365
3,AGCAAACG,-0.0626
4,ATGAGCGA,0.082
5,TCTACAGA,-0.124
6,ACCTCGGA,0.038
7,AAGCGAGA,0.102
8,GCGGCACA,0.0275
9,GACCCGGC,-0.244
10,CAAATGAC,-0.0347
11,GCGTAGTA,-0.0499
12,AATAGCAC,-0.152
13,GTCATCAA,0.153
14,GCCAGGCC,-0.168
15,AACTCAAC,0.0643
16,ATGGGATG,-0.0392
17,ACCTAAGG,-0.0413
18,ATTTTCGC,0.103
19,CTGGCACA,-0.29
20,AAGACCGT,-0.216
21,GTCCAACA,-0.00403
22,CTTATGGC,0.0729
23,TAACTCCA,-0.111
24,GCGCCTCC,-0.152
25,CTAGCCGA,-0.0174

# Some values from the list:
# Value for AATAGCAC under PBM E-score: -0.152
# Value for GCCAGGCC under PBM E-score: -0.168
# Value for CTGGCACA under PBM E-score: -0.29
# Value for ACCTAAGG under PBM E-score: -0.0413
# Value for GTTTAGCA under PBM E-score: -0.0365
# Value for TCTACAGA under PBM E-score: -0.124

# Additional results follow:

row,Sequence,PBM E-score
1,CTCGCTGC,-0.0858
2,AGTCCCGA,-0.202
3,CACTTGTC,0.0322
4,GGGCTTTA,-0.256
5,ACGCTGAA,0.00546
6,AGCATCAA,0.149
7,ACGTCCGG,-0.0967
8,AGTTAGGC,-0.00545
9,AACGTCAT,0.106
10,ATCACTAC,0.0148
11,TGTCTTAA,-0.0348
12,AGTTCGGA,0.0572
13,ATTTGCAA,0.153
14,GGAACGCC,-0.118
15,ACGGCCTG,-0.182
16,CCACCTGA,0.0554
17,AAAATCAA,0.107
18,AACACCGC,-0.0233
19,ACTGCGTG,-0.249
20,GCAATCTA,0.0858
21,GCAGCTCA,-0.015
22,TGATAACA,0.199
23,CAGCGATC,-0.00263
24,GTCACTCA,0.142
25,CAGGCGGA,0.0778

row,Sequence,PBM E-score
1,TAAAGAGA,0.0262
2,GACACCAC,-0.124
3,AGATAAAT,0.171
4,CGTAGTGA,0.00124
5,ACGGCAGC,0.00373
6,ACATACTC,0.0818
7,AATGTAGC,-0.0195
8,AGGTCGCA,0.0331
9,AGGAGGGA,-0.229
10,GTTTCAAA,0.00863
11,CATCGTGG,-0.16
12,ACCGTGGG,-0.348
13,TGCAGTAA,0.00132
14,GTCCGGAA,0.0617
15,ACTAGGCA,-0.0515
16,CACGCACG,-0.175
17,ACAGAGAT,0.137
18,ATTGGGTG,0.282
19,ATTTTGCC,-0.0315
20,ATATTGCG,0.176
21,GTCCTCGA,-0.0336
22,ACTCATTA,0.172
23,ACAGAGCA,0.112
24,AATATCTC,0.113
25,CAACGCGC,0.201

row,Sequence,PBM E-score
1,AGCAACAA,0.143
2,ACGGTGAT,0.036
3,TAATCCCA,0.0937
4,ATCCGTCG,0.036
5,GATTGGAC,0.0786
6,CGCCTCAG,-0.153
7,ATTTGATC,0.0618
8,AATACCCC,0.0429
9,CCTATCTA,-0.0781
10,ATGGAATA,0.322
11,AAAACCAG,0.0307
12,CCTAGAAC,0.00991
13,ACAACGCA,-0.00796
14,CCACTAAA,0.0784
15,AGTTGGAG,0.0277
16,CTGGTCTC,-0.224
17,GAACTGAC,-0.0717
18,GCAACCAC,0.0219
19,ACGTTGCC,-0.112
20,ACCCATTG,-0.0482
21,CATTAGAC,-0.297
22,GAGGGGTA,-0.105
23,GCTCATGA,-0.0154
24,AGAGCGAA,0.119
25,AGCGAGTA,0.146

row,Sequence,PBM E-score
1,GATCTCAA,0.112
2,ACTGGCAC,-0.152
3,CTGAGACC,-0.238
4,GGATGGCC,-0.296
5,AGTGCCAA,-0.239
6,GGGTTTAC,0.0632
7,TATAAATA,0.283
8,ATACCTAA,0.286
9,ATACGCCG,-0.0917
10,AAAGCACA,0.0512
11,AACCTGCA,0.0994
12,GGTTACAA,0.0628
13,AATACATA,0.278
14,AACGGGCG,-0.00237
15,AAACTAGC,-0.0623
16,GGATAAAC,0.135
17,CCCCGTGA,-0.0426
18,CGCAGGTC,-0.2
19,GAGAATAA,0.208
20,AAGAAATC,0.00777
21,AGTTCGAT,0.106
22,AATGGGGG,-0.39
23,AACTCCGT,0.0562
24,AAGAAAGC,-0.0256
25,ACAGCCAT,0.0862

row,Sequence,PBM E-score
1,ACAACACA,0.123
2,CAACCGAA,0.147
3,GCGGGTAC,-0.0523
4,ACGGTAAG,0.0671
5,AGAATGGC,0.0927
6,AGGCAACT,0.146
7,TATCCTCA,0.0763
8,AAGGGACC,-0.0753
9,AACGAAAT,0.237
10,AACTGTAT,0.003
11,CCTCATAG,-0.0586
12,CCAGGAAG,-0.147
13,GCTAGTAC,-0.0928
14,TCATCGCA,-0.0628
15,AATAGTGA,0.0837
16,AGCACGTG,-0.0463
17,AGGGAGTG,-0.276
18,AGAGGCAG,-0.163
19,ACTAGCCC,-0.101
20,AATGCGTC,-0.0875
21,CGGCTACC,-0.0686
22,AGAGCCTC,-0.271
23,CTGGCTCC,-0.287
24,CAGAGATA,0.142
25,ACGGGAAG,-0.108

row,Sequence,PBM E-score
1,GTTCCTTA,-0.0426
2,CAGAGTAA,-0.0253
3,GATCGCGA,0.113
4,TACGGAGA,-0.028
5,CTGTACAA,0.0657
6,TGACGAAA,0.099
7,CCGGTAAG,0.00312
8,GCGCTCTA,-0.114
9,TAACGCGA,0.061
10,GGTTTCGA,0.0244
11,ATGGGGAG,-0.00551
12,TATCTAAA,0.0519
13,AGATTGTA,0.156
14,AAAAAGCC,0.11
15,TACACGGA,0.158
16,GCCACAGC,-0.105
17,ATCTGTAG,-0.106
18,AACTCAAA,0.163
19,AAGCGACG,-0.149
